Test results published in paper PMC12085317.
No constants are given. Whether binding was seen depends on the method and setting. Binding seen in cells or lysates may run through a third protein. Here binding means that the protein was enriched with, or labelled near, the bait; the list need not be complete. Tags and fused reporters may be left off the sequences shown. Each block holds one binder with its values, some of them ahead of it.

Columns and labels:
[1] = molecular target: T1, CSTF2_TurboID_HA fusion protein (UniProt P33240); test: proximity labelling; CSTF2_TurboID_HA expressed in MCF7 cells, 50 µM biotin and 1 mM ATP for 3 h, with 100 nM E2 or ethanol; biotinylated proteins of nuclear and cytoplasmic lysates captured on beads (Neutravidin agarose in the methods, streptavidin magnetic beads in the results), LC-MS/MS; cytoplasmic proteins subtracted from the nuclear list; SAINT scoring
T1 sequence: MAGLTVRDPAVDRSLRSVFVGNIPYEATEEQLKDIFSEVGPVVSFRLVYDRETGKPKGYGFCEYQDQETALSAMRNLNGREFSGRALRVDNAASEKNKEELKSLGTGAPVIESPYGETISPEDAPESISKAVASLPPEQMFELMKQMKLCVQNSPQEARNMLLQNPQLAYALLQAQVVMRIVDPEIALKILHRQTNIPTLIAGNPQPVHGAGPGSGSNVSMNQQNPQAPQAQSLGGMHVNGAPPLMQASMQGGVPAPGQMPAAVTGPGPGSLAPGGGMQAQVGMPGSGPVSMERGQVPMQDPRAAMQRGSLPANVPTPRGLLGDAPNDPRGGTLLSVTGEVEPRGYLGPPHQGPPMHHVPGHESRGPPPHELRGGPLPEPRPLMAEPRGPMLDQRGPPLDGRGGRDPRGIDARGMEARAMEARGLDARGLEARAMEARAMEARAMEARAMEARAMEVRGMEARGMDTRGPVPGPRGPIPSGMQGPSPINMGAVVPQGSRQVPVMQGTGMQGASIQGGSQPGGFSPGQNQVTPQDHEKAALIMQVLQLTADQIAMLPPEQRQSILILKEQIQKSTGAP

[2] = molecular target: T1, CSTF2_TurboID_HA fusion protein; test: proximity labelling; independent experiment: CSTF2-TurboID in MCF7 cells, 50 µM biotin with or without E2 for 45 min and 3 h; nuclear and cytoplasmic lysates, affinity capture with streptavidin beads, western blot with anti-ADAR1, anti-CSTF2 and anti-Biotin

binding [1]: binds
B1: CPSF2 (protein, UniProt Q9P2I0 1-782)
chain: MTSIIKLTTLSGVQEESALCYLLQVDEFRFLLDCGWDEHFSMDIIDSLRKHVHQIDAVLLSHPDPLHLGALPYAVGKLGLNCAIYATIPVYKMGQMFMYDLYQSRHNTEDFTLFTLDDVDAAFDKIQQLKFSQIVNLKGKGHGLSITPLPAGHMIGGTIWKIVKDGEEEIVYAVDFNHKREIHLNGCSLEMLSRPSLLITDSFNATYVQPRRKQRDEQLLTNVLETLRGDGNVLIAVDTAGRVLELAQLLDQIWRTKDAGLGVYSLALLNNVSYNVVEFSKSQVEWMSDKLMRCFEDKRNNPFQFRHLSLCHGLSDLARVPSPKVVLASQPDLECGFSRDLFIQWCQDPKNSIILTYRTTPGTLARFLIDNPSEKITEIELRKRVKLEGKELEEYLEKEKLKKEAAKKLEQSKEADIDSSDESDIEEDIDQPSAHKTKHDLMMKGEGSRKGSFFKQAKKSYPMFPAPEERIKWDEYGEIIKPEDFLVPELQATEEEKSKLESGLTNGDEPMDQDLSDVPTKCISTTESIEIKARVTYIDYEGRSDGDSIKKIINQMKPRQLIIVHGPPEASQDLAECCRAFGGKDIKVYMPKLHETVDATSETHIYQVRLKDSLVSSLQFCKAKDAELAWIDGVLDMRVSKVDTGVILEEGELKDDGEDSEMQVEAPSDSSVIAQQKAMKSLFGDDEKETGEESEIIPTLEPLPPHEVPGHQSVFMNEPRLSDFKQVLLREGIQAEFVGGVLVCNNQVAVRRTETGRIGLEGCLCQDFYRIRDLLYEQYAIV

binding [2]: binds | binding [1]: binds
B2: ADAR1 (protein, UniProt P55265 1-1226)
chain: MNPRQGYSLSGYYTHPFQGYEHRQLRYQQPGPGSSPSSFLLKQIEFLKGQLPEAPVIGKQTPSLPPSLPGLRPRFPVLLASSTRGRQVDIRGVPRGVHLRSQGLQRGFQHPSPRGRSLPQRGVDCLSSHFQELSIYQDQEQRILKFLEELGEGKATTAHDLSGKLGTPKKEINRVLYSLAKKGKLQKEAGTPPLWKIAVSTQAWNQHSGVVRPDGHSQGAPNSDPSLEPEDRNSTSVSEDLLEPFIAVSAQAWNQHSGVVRPDSHSQGSPNSDPGLEPEDSNSTSALEDPLEFLDMAEIKEKICDYLFNVSDSSALNLAKNIGLTKARDINAVLIDMERQGDVYRQGTTPPIWHLTDKKRERMQIKRNTNSVPETAPAAIPETKRNAEFLTCNIPTSNASNNMVTTEKVENGQEPVIKLENRQEARPEPARLKPPVHYNGPSKAGYVDFENGQWATDDIPDDLNSIRAAPGEFRAIMEMPSFYSHGLPRCSPYKKLTECQLKNPISGLLEYAQFASQTCEFNMIEQSGPPHEPRFKFQVVINGREFPPAEAGSKKVAKQDAAMKAMTILLEEAKAKDSGKSEESSHYSTEKESEKTAESQTPTPSATSFFSGKSPVTTLLECMHKLGNSCEFRLLSKEGPAHEPKFQYCVAVGAQTFPSVSAPSKKVAKQMAAEEAMKALHGEATNSMASDNQPEGMISESLDNLESMMPNKVRKIGELVRYLNTNPVGGLLEYARSHGFAAEFKLVDQSGPPHEPKFVYQAKVGGRWFPAVCAHSKKQGKQEAADAALRVLIGENEKAERMGFTEVTPVTGASLRRTMLLLSRSPEAQPKTLPLTGSTFHDQIAMLSHRCFNTLTNSFQPSLLGRKILAAIIMKKDSEDMGVVVSLGTGNRCVKGDSLSLKGETVNDCHAEIISRRGFIRFLYSELMKYNSQTAKDSIFEPAKGGEKLQIKKTVSFHLYISTAPCGDGALFDKSCSDRAMESTESRHYPVFENPKQGKLRTKVENGEGTIPVESSDIVPTWDGIRLGERLRTMSCSDKILRWNVLGLQGALLTHFLQPIYLKSVTLGYLFSQGHLTRAICCRVTRDGSAFEDGLRHPFIVNHPKVGRVSIYDSKRQSGKTKETSVNWCLADGYDLEILDGTRGTVDGPRNELSRVSKKNIFLLFKKLCSFRYRRDLLRLSYGEAKKAARDYETAKNYFKKGLKDMGYGNWISKPQEEKNFYLCPV

binding [1]: binds
B3: CPSF3 (protein, UniProt Q9UKF6 1-684)
chain: MSAIPAEESDQLLIRPLGAGQEVGRSCIILEFKGRKIMLDCGIHPGLEGMDALPYIDLIDPAEIDLLLISHFHLDHCGALPWFLQKTSFKGRTFMTHATKAIYRWLLSDYVKVSNISADDMLYTETDLEESMDKIETINFHEVKEVAGIKFWCYHAGHVLGAAMFMIEIAGVKLLYTGDFSRQEDRHLMAAEIPNIKPDILIIESTYGTHIHEKREEREARFCNTVHDIVNRGGRGLIPVFALGRAQELLLILDEYWQNHPELHDIPIYYASSLAKKCMAVYQTYVNAMNDKIRKQININNPFVFKHISNLKSMDHFDDIGPSVVMASPGMMQSGLSRELFESWCTDKRNGVIIAGYCVEGTLAKHIMSEPEEITTMSGQKLPLKMSVDYISFSAHTDYQQTSEFIRALKPPHVILVHGEQNEMARLKAALIREYEDNDEVHIEVHNPRNTEAVTLNFRGEKLAKVMGFLADKKPEQGQRVSGILVKRNFNYHILSPCDLSNYTDLAMSTVKQTQAIPYTGPFNLLCYQLQKLTGDVEELEIQEKPALKVFKNITVIQEPGMVVLEWLANPSNDMYADTVTTVILEVQSNPKIRKGAVQKVSKKLEMHVYSKRLEIMLQDIFGEDCVSVKDDSILSVTVDGKTANLNLETRTVECEEGSEDDESLREMVELAAQRLYEALTPVH
